Article PMC2963310 (Science (New York, N.Y.), 2009)

The chains behind the UniProt entries cited, without tags or fusion partners. Where a name states a change or a piece, a line headed by the entry shows the natural chain unless it says otherwise.
UniProt H2KYN9: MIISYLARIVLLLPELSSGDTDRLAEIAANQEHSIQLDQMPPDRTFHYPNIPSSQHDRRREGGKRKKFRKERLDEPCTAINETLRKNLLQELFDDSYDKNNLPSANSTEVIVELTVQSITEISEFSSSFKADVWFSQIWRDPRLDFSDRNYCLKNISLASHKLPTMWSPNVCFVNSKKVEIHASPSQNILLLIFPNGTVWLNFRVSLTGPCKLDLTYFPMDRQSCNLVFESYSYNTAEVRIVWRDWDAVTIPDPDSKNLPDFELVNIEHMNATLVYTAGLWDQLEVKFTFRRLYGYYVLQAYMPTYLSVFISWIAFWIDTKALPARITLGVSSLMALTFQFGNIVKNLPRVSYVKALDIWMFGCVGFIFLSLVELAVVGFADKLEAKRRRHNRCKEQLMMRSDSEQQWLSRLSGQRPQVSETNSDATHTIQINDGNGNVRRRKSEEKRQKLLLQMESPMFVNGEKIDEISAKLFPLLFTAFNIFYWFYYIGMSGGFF

Target: LGC-53 (Caenorhabditis elegans, UniProt H2KYN9)
Experiment: Inhibition of dopamine-evoked LGC-53 currents in Xenopus oocytes
Type: cell-based

Compound | IC50 [µM]
O=C(CCCN1CCC(O)(c2ccc(Cl)cc2)CC1)c1ccc(F)cc1 [haloperidol] | 32
Cc1nc2n(c(=O)c1CCN1CCC(c3noc4cc(F)ccc34)CC1)CCCC2 [risperidone] | 40
